According to US4508657 (dated 1985):

Assay: general procedure: solution-phase peptide synthesis; polymeric active esters
Settings: whole synthesis

## Climoc-Gly-Gly-Phe-Leu-Obzl
  isolated yield: 74% yield
